Results as given in patent US20240350538A1, “Use of an arsenic compound for treating a short or long cytokine storm in various autoimmune/inflammatory diseases in humans or animals” (priority 2020, published 2024).
At least one compound was matched to its structure with a doubt left.

Test system: fresh human Peripheral Blood Mononuclear Cells (hPBMCs)
Experiment: Cytokine production (IFNα, IL-6, IL-1β) by hPBMCs in basal condition and after TLR-9 stimulation (ODN2216)
Type: cell-based
Settings: TLR-9-stimulated hPBMCs (ODN2216 1 μM), 24 h; ATO 0.1-2.5 μM, dexamethasone 1 μM

C[C@@H]1C[C@H]2[C@@H]3CCC4=CC(=O)C=C[C@]4(C)[C@@]3(F)[C@@H](O)C[C@]2(C)[C@@]1(O)C(=O)CO [dexamethasone]
strongly inhibited: production of IFNα | production of IL-1β | production of IL-6
